Laboratory results from PubChem BioAssay AID1671190 (National Center for Advancing Translational Sciences (NCATS), 2021).
Values joined by “and” are separate entries in the source; they are usually repeats but may differ in a detail not shown here. Identical values can stand only once. Screen size: about 580,000 compounds; about 6,100 (1.1%) were called active. Inconclusive results, whose numbers are uncertain, are shown with a selection of clear calls. The call rests on the fitted dose curve; in most records, active means well fitted inhibition curve with a large enough effect; inconclusive means small, poorly fitted or top-dose-only effect, or another doubt; inactive means no such curve, though single readings can be large or run the other way. Potencies of inconclusive entries are doubtful fits and often do not repeat.
On the % scale 0 is the no-effect control and ±100 the full control effect; potency means the concentration at half of the fitted maximal effect.

Protein sequences, listed by entry. Tags and fused reporters are not part of them. Lines headed by an entry give the natural chain unless they say otherwise; changes in a name come on top.
UniProt P18054: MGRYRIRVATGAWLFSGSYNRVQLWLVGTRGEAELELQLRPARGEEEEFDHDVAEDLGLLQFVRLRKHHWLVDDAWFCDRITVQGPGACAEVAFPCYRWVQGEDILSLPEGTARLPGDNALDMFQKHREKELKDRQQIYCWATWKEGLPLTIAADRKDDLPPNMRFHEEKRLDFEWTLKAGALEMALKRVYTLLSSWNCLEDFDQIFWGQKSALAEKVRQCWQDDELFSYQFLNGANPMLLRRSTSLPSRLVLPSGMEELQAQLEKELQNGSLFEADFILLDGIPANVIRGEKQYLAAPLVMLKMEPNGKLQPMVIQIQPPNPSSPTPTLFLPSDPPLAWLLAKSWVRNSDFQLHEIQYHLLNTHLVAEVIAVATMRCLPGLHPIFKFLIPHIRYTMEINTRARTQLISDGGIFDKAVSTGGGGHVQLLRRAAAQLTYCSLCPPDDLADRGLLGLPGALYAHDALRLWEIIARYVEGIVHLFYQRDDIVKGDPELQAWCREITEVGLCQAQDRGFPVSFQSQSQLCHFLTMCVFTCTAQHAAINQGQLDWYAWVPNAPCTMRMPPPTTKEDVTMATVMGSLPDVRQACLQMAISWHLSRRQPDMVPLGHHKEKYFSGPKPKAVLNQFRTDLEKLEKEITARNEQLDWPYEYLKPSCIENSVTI

What follows are molecules tested against Polyunsaturated fatty acid lipoxygenase ALOX12 (Homo sapiens) (UniProt P18054) (assay: Primary qHTS assay for inhibitors of human arachidonate 12S-lipoxygenase (ALOX12): Round 2). Details: purified 12hLO, xylenol orange hydroperoxide absorbance; activity change, negative = inhibition: at 108 µM (top of the series) unless noted.
In short: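 Hydroperoxide product was detected by ferrous iron/xylenol orange as the 573 to 405 nm absorbance ratio. Arachidonic acid at 40 uM (final) was turned over for 30 min at room temperature by 150 nM human 12hLO, pH 7.0 Hepes buffer, after 15 min compound preincubation.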
In the case of `Cc1cc(=O)n2c3ccccc3nc2n1CC(=O)c1ccccc1`, the Potency is reported as inconclusive: 126 µM [inhibitor, single point].
For `COc1ccc(CN2CCN(c3ncccn3)CC2)c(OC)c1`, the Potency was inconclusive: 3.16 µM [inhibitor, full curve, poor fit].
In the case of `COCC(C)NCc1cccc(OC)c1OC` (stereo not drawn), the Potency is reported as inconclusive: 0.631 µM [inhibitor, full curve, poor fit].
In the case of `CCOCCCn1c(=S)[nH]c2cc(C(=O)NCCc3ccccc3)ccc2c1=O`, the Potency is reported as “inactive”.
With `CN1CCN(c2ccc(NC(=O)COc3ccccc3F)cn2)CC1` the Potency was “inactive”.
`O=C(O)C1Sc2[nH]c(=O)sc2C2c3cc(Br)ccc3OC(=O)C12` (stereo not drawn) was tested, and the Potency was inconclusive: 126 µM [inhibitor, single point].
In the case of `CCn1cc(-c2n[nH]c(=S)n2-c2ccc(C)cc2Br)c(=O)c2ccc(C)nc21`, the Potency is reported as inconclusive: 141 µM [inhibitor, single point].
`O=C(O)CSc1nnc(Cn2cnc3ccccc32)n1CCc1ccccc1` was tested, and the Potency was inconclusive: 50.1 µM [inhibitor, partial curve, poor fit].
In the case of `CC(C)C(=O)Nc1ccc(Cl)cc1F`, the Potency is reported as inconclusive: 3.55 µM [inhibitor, full curve, poor fit].
With `CCc1c(C)sc(NC(=O)c2ccccc2)c1C#N` the Potency was inconclusive: 15.8 µM [inhibitor, full curve, poor fit].
`O=C(c1ccccc1F)N1CCC2(CC1)C(=O)NCN2Cc1ccc(Cl)cc1` was tested, and the Potency was “inactive”.
With `COc1ccc(OC)c(NC(=O)c2c(NCc3ccc(OC)c(OC)c3)sc3c2CCC(C)C3)c1` (stereo not drawn) the Potency was inconclusive: 56.2 µM [inhibitor, partial curve, poor fit].
With `COc1cc(Cl)c(C)cc1NC(=O)Cn1ccn2nc(-c3ccccc3)c(CO)c2c1=O` the Potency was inconclusive: 89.1 µM [inhibitor, single point].
`OCC1(Cc2ccc(Cl)cc2)CCN(Cc2ccc(F)c(F)c2)CC1` was tested, and the Potency was “inactive”.
For `CCCCNC(=O)COc1c(Cl)cc(Cl)c2ccc(C)nc12`, the Potency was inconclusive: 7.08 µM [inhibitor, full curve, poor fit].
With `COc1ccc(CNC(=O)CCC2N=C3c4ccccc4N=C(SCc4ccc(F)cc4)N3C2=O)cc1` (stereo not drawn) the Potency was inconclusive: 56.2 µM [inhibitor, partial curve, poor fit].
For `CCC(=O)OC1(C)C(=O)C=C2C=C(CCCC(=O)OC)OC=C2C1=O` (stereo not drawn), the Potency was inconclusive: 44.7 µM [inhibitor, partial curve, poor fit].
In the case of `Cc1cccc(C(=O)Nc2ccc(C(=O)/C=C/c3ccncc3)cc2)c1`, the Potency is reported as inconclusive: 11.2 µM [inhibitor, full curve].
In the case of `COc1ccccc1N(C)S(=O)(=O)c1ccc(Cl)c(C(=O)N2CCC2)c1`, the Potency is reported as “inactive”.
`CCOC(=O)c1ccccc1NC(=O)CSc1nc2ccccc2o1` was tested, and the Potency was “inactive”.
In the case of `CCOc1ccc(CC(=O)NC2CCCN(c3cc(-c4ccc(F)cc4)[nH]n3)C2)cc1OCC` (stereo not drawn), the Potency is reported as inconclusive: 31.6 µM [inhibitor, partial curve].
In the case of `O=C(O)c1cccc(CSc2nnc(-c3ccco3)o2)c1`, the Potency is reported as inconclusive: 70.8 µM [inhibitor, single point].
`O=c1c(Cl)c(NCc2ccco2)cnn1C12CC3CC(CC(C3)C1)C2` was tested, and the Potency was inconclusive: 0.708 µM [inhibitor, full curve].
For `CSCC(=O)N1CC[C@H](NC(=O)NC(C)C)[C@H]1C(=O)N[C@H](Cc1ccccc1)C(N)=O`, the Potency was “inactive”.
`Oc1oc(-c2ccccc2)nc1/C=N/c1ccccn1` was tested, and the Potency was “inactive”.
In the case of `C/C(=N\Nc1ccc(S(N)(=O)=O)cc1[N+](=O)[O-])c1ccc2c(c1)OCO2`, the Potency is reported as inconclusive: 44.7 µM [inhibitor, partial curve, poor fit].
`CC1=C[C@@H](CNC(=O)CCCC(=O)O)[C@H](C(C)C)C[C@H]1Cc1nc2ccc(C)cc2[nH]1` was tested, and the Potency was inconclusive: 25.1 µM [inhibitor, partial curve, poor fit].
`CCN(CC)c1ccc(/C=N/NC(N)=S)cc1` was tested, and the Potency was inconclusive: 44.7 µM [inhibitor, partial curve, poor fit].
`CCC(C)C(NC(=O)C1CCC(C)CC1)C(=O)NCc1cccnc1` (stereo not drawn) was tested, and the Potency was “inactive”.
`CCc1cccc(C)c1Nc1nc(N)c(C(=O)c2ccc(OC)cc2)s1` was tested, and the Potency was inconclusive: 70.8 µM [inhibitor, partial curve, poor fit].
`CS(=O)(=O)N(C1CCOCC1)C1CN(C(=O)c2n[nH]c3ccccc23)C1` was tested, and the Potency was “inactive”.
For `Cc1cc(C)nc(NS(=O)(=O)c2ccc(NC(=O)c3cc(=O)c4ccc(C)c(C)c4o3)cc2)n1`, the Potency was inconclusive: 15.8 µM [inhibitor, full curve, poor fit].
With `C[n+]1ccc(/C=C/c2c[nH]c3ccccc23)cc1` the Potency was inconclusive: 44.7 µM [inhibitor, partial curve, poor fit].
`CC1CC(C)CN(C(=O)COC(=O)COc2ccccc2C#N)C1` (stereo not drawn) was tested, and the Potency was “inactive”.
With `Cc1ccc(-c2csc(NC(=O)C3=COCCO3)n2)cc1` the Potency was inconclusive: 89.1 µM [inhibitor, partial curve, poor fit].
With `COc1ccc(C(=O)N[C@@H]2CCC[C@@H]2C(=O)NCCCN(C)C)cn1` the Potency was “inactive”.
With `C[N+](C)(C)C/C=C1/COCO1` the Potency was active: 11.2 µM and inconclusive: 1.78 µM [inhibitor, partial curve, poor fit].
For `COC(=O)CCC(=O)Nc1sc2c(c1C#N)CCCC2`, the Potency was “inactive”.
`CC(C)NC(=O)c1nc(-c2cccc(F)c2)c2cnccn12` was tested, and the Potency was inconclusive: 28.2 µM [inhibitor, full curve].
For `CSc1ccccc1NC(=O)c1ccc(C)s1`, the Potency was “inactive”.
For `NC(=O)CC(NC(=O)c1cccc(Br)c1)c1ccc(N2CCC(Br)CC2)c([N+](=O)[O-])c1` (stereo not drawn), the Potency was inconclusive: 112 µM [inhibitor, single point].
`O=C(Nc1ccc(F)cc1)C(c1cc2ccccc2o1)N1CCN(C(=O)c2ccco2)CC1` (stereo not drawn) was tested, and the Potency was inconclusive: 79.4 µM [inhibitor, single point].
With `Cc1oc2ccc(O)c(CN3CCCCC3C)c2c1C(=O)Nc1ccccc1` (stereo not drawn) the activity change, negative = inhibition was inconclusive: -45.5% [inhibitor].
